# Results of single-concentration screens

Each number is a percent effect as filed.
The record does not define 0% and 100%; most values in the screen are far below 50% and negative numbers occur (in some assays of this library far below -100).
This is an unselected part of the compounds tested.
Two or more numbers in one place are separate tests of the same structure; such repeats can differ widely.

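Phenotypic screen: M. tuberculosis growth, glucose 7H9 medium, 3 days; the read-out is not stated. Concentration: 50 µM. Direction is inferred from retests: higher values go with more growth inhibition. Size under these conditions: about 69,000 compounds, about 760 of them at 50% or above in at least one test.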

For CCN(Cc1ccc2c(c1)OCCO2)S(=O)(=O)N(C)C(C)C the result was 33.07%.
For CCc1noc(C(C)N2CCC(NS(=O)(=O)c3ccccc3)CC2)n1 (stereo unspecified) the result was 31.82% and 0.5187%.
For COC(=O)c1ccc(CNC2CC(=O)N(Cc3cccc(F)c3)C2)cc1 (stereo unspecified) the result was -4.998%.
For CC1=Nc2c(c(=O)[nH]n2C(C)C)C(c2cccs2)S1 (stereo unspecified) the result was -1.162%.
For CCn1ccnc1CN1CCN(c2nc(C)cc(OC)n2)CC1 the result was 5.213%.
For CCCNC(=O)CCC(=O)n1nc(C)c2ccccc21 the result was 14.85%.
For Cc1nc(NCCSc2nnc(C)s2)c2cccnc2n1 the result was -15.24%.
For CN(C)CCN1CCOCC2(CCCN(C(=O)Cc3ccccc3)C2)C1.O=C(O)C(F)(F)F.O=C(O)C(F)(F)F (stereo unspecified) the result was -47.52% and -7.28%.
For CCc1nccn1CCC(=O)N1CCCC1c1ccc(F)cc1 (stereo unspecified) the result was -43.05%.
For Cc1cc(C)n(C2CCN(c3ncnc4sc5c(c34)CCNC5)C2)n1 (stereo unspecified) the result was -14.79% and -3.606%.
For CN(Cc1ccc(Cl)s1)C(=O)NCCC(=O)N1CCCCCC1 the result was -5.017%.
For CN1C(=O)CC(C(=O)O)C12CCN(Cc1cc(F)ccc1Cl)CC2 (stereo unspecified) the result was 11.28% and 4.264%.
For COCCC(=O)N1CCc2cc(Cl)cc(Cl)c2C1 the result was 55.21%.
For N#Cc1ccc(F)c(CNc2ccc(F)cc2OCCO)c1 the result was -22.37%.
For Cc1nc(N2CCN(C)CC2)ncc1C(=O)N1CCCCC1 the result was 23.38%.
For CCS(=O)(=O)Cc1ccn(-c2cccc(F)c2)n1 the result was -25.77% and -5.324%.
For CCOc1cc(C(=O)N2CCN(C)CC2)cc2occc12 the result was -30.3%.
For Cc1nc2c(c(=O)n1C)CN(C(=O)C1CCCN(C(=O)N(C)C)C1)C2 (stereo unspecified) the result was 0.3168%.
For Cc1cccc(CC(=O)N2CCCCC2CN)c1.Cl (stereo unspecified) the result was 22.71%.
For Cc1ccc(S(=O)(=O)N2CCCC3(CCCN3S(C)(=O)=O)C2)cc1F (stereo unspecified) the result was 10.76%.
For Cn1cccc1C(=O)N1CCn2cc(CN3CCCC3)nc2C1 the result was -22.18%.
For O=C(O)C(F)(F)F.O=C1Nc2ccccc2C12CCN(Cc1nccs1)CC2 the result was 23.83%.
For Cc1nc(CN(C)C2CCN(Cc3nc4c(F)cccc4[nH]3)C2)no1 (stereo unspecified) the result was -11.97%.
For CC(O)CN(C)C(=O)Nc1ccn(-c2cccc(C(F)(F)F)c2)n1 (stereo unspecified) the result was -1.848% and -5.809%.
For O=C1CSC(c2ccncc2)c2c[nH]nc2N1 (stereo unspecified) the result was 6.324%.
For O=C(NC1CCCCC1)N1CCC(N2Cc3ncccc3C2=O)CC1 the result was 5.285%.
For O=C(c1ccc(Cl)cc1)N1CCC(N2CCNC2=O)CC1 the result was 16.25%.
For O=C(CCn1c(=O)oc2ccccc21)NCC(O)c1ccc(F)c(F)c1 (stereo unspecified) the result was 10.27%.
For O=C(O)C(F)(F)F.[H][C@@]12CCN(Cc3nccs3)[C@]1([H])CC[C@@H](C(=O)N(C)C)O2 the result was 7.787%.
For COc1ccc(C(=O)C2CCCN(Cc3cc(C)n[nH]3)C2)c(OC)c1 (stereo unspecified) the result was 15.12%.
For Cc1cnn(C(C)C2CC2)c1NC(=O)c1ccncc1 (stereo unspecified) the result was -27.34%.
For Cc1cc(C)c(CNC(=O)N2CCCC2c2ccc(F)cc2)c(=O)[nH]1 (stereo unspecified) the result was 7.816%.
For Cc1oc(-c2nc(C#N)c(N(C)C)o2)cc1S(=O)(=O)N1CCCCCC1 the result was 12.56%.
For CCN(CC)C(CNC(=O)CCc1nc(C(C)C)no1)c1ccco1 (stereo unspecified) the result was -7.042% and -12.95%.
For CNC(=O)N1CCc2nc(C(=O)Nc3cccnc3)sc2CC1 the result was 11.06%.
For Cc1cc(C)n(Cc2cccc(C(=O)NCCSCC(C)(C)O)c2)n1 the result was 27.82%.
For CCc1nc(CN2CCCN(C(=O)c3occc3C)CC2)cs1 the result was 7.892%.
For COCC(=O)N(C)Cc1ccc(Cl)c(Cl)c1 the result was 6.53% and -1.421%.
For COc1ccc(NC(C)=O)cc1OCc1cccnc1 the result was 4.636%.
For O=C1CCCN1CCCN1CCCCC1Cn1cncn1 (stereo unspecified) the result was 6.201% and 1.61%.
For Cc1cc(C)c2c(N3CCC(O)(Cn4ccnc4)CC3)ncnc2n1 the result was -4.059%.
For CCn1c(CN(C)C)nnc1C1CCN(Cc2ccc(C)s2)CC1 the result was -1.621%.
For CN(C)c1cc(C2CCCN(S(=O)(=O)C3CCCC3)C2)ccn1 (stereo unspecified) the result was 9.365%.
For O=C(NCC(=O)N1CCCC1Cc1cccc(F)c1)C1CCCC1 (stereo unspecified) the result was -1.829%.
For Cc1cc(C)n(CC2CN(CC(=O)NC(C3CC3)C3CC3)CCO2)n1 (stereo unspecified) the result was 14.75%.
For N#CC1(NC(=O)COC(=O)Cc2cc(Cl)c3c(c2)OCCO3)CCCC1 the result was 0.8875%.
For CCc1nc(CSc2nnc(N)n2C2CC2)no1 the result was -25.06% and 4.619%.
For COc1ccc(-c2cc3nc(CCNC(=O)CN(C)C)nn3cn2)cc1 the result was -23.52%.
For COc1ccc(C(=O)C2CCCN(Cc3ccon3)C2)c(OC)c1 (stereo unspecified) the result was -2.057%.
For CSCC[C@H](N)c1nnc(SCc2cc(C)ccc2C)o1.Cl the result was 19.36%.
For N#Cc1ccc(CN2CCC(c3ccnn3CCO)CC2)cc1 the result was -10.33%.
For [H][C@]12CN(Cc3cccc4[nH]ccc34)C[C@]1([H])N(C1CCOCC1)C(=O)CO2 the result was 31.97%.
For CN1CCCC(CCC(=O)N2CCc3c(nc(CC4CC4)[nH]c3=O)C2)C1 (stereo unspecified) the result was -18.66%.
For Cc1cc(N(Cc2cccs2)C2CC2)n2nc(C(F)(F)F)nc2n1 the result was -4.775%.
For COc1ccc(C(=O)N2CCC3(CCC(=O)N(C(C)C)C3)CC2)cc1C the result was 18.61%.
For CN(CC(=O)N1CCOCC(CO)C1)Cc1ccccn1 (stereo unspecified) the result was 8.711%.
For Cc1nc(-c2ccco2)ccc1C(=O)NCCC(=O)N1CCCCC1 the result was -2.865%.
For O=C(Nc1ccccn1)c1nc(N2CCCC2)ncc1Cl the result was -9.952%.

3 of the entries, repeated:

{"smiles": "Cc1nc(N2CCN(C)CC2)ncc1C(=O)N1CCCCC1", "percent effect": 23.38}
{"smiles": "Cc1cc(C)c(CNC(=O)N2CCCC2c2ccc(F)cc2)c(=O)[nH]1", "stereo": "stereo unspecified", "percent effect": 7.816}
{"smiles": "CN1C(=O)CC(C(=O)O)C12CCN(Cc1cc(F)ccc1Cl)CC2", "stereo": "stereo unspecified", "percent effect": "11.28 and 4.264"}

From ChEMBL document CHEMBL3988442, “University of Dundee, Small-Polar-MMV Screening Library” (2021).